# Measurements: US20170143674A1, “Use of Glutaryl Histamine for the Treatment of Respiratory Tract Diseases” (LTD "VALENTA-INTELLEKT", priority 2011, published 2017)
# “Also recorded” adds a separate entry of the source. At least one structure is not confirmed: it was looked up by name or label, or the drawing left a doubt.
# Legend:
# [1] = tested on: acute rhinosinusitis induced by intranasal administration of formalin; type: in vivo, rat; conditions: Dexamethasone 5 mg/kg; n = 10; listed as dexamethasone
# Experimental: Activity of glutaryl histamine was studied in an experimental model of acute rhinosinusitis (ARS).
# Administration of 20 μl of 7.5% formalin to the rat nasal passages leads to the development of a clinical picture similar to the symptoms of acute rhinosinusitis in a human.
# The tested medicament and reference medicaments were administered for 7 days after administration of 7.5% formalin. Normal saline solution was used as placebo. The animals were subjected to euthanasia on day 8 after induction of experimental acute rhinosinusitis by method of air embolism. During necropsy, nasal passages of all animals were sampled. The obtained material was placed into 10% neutral-buffered formalin for further histological analysis.
# The mucous and submucous membranes of both nasal passages (respiratory and olfactory regions) of the experimental animals were subjected to a morphological analysis of the specific activity of glutaryl histamine. […]
# The main pathological processes inherent in experimental acute rhinosinusitis, such as vascular congestion in mucous membrane, hyperplasia and necrosis of the epithelium, the number of caliciform cells within 1 mm of the mucous membrane in the nasal septum, were evaluated by a semi-quantitative method to evaluate the degree of pathophysiological changes in histological, histochemical and morphological studies. […]
# [2] = tested on: acute bronchitis induced by endotracheal administration of lipopolysaccharide; assay: acute bronchitis (bronchiolitis/pneumonia) model, endotracheal LPS; type: in vivo, Wistar rats
# Text: The therapeutic effectiveness of glutaryl histamine was studied on an experimental model of acute bronchitis. The therapeutic effectiveness of glutaryl histamine was studied on an experimental model of acute bronchitis induced by endotracheal administration of lipopolysaccharide to laboratory Wistar rats through a probe. […] After administration of LPS, from 5 to 7 motions by the syringe plunger was made for better distribution of LPS in the pulmonary tract. After this manipulation, the animals were monitored for 2 hours to reveal complications after the administration.
# Dexamethasone in a dose of 5 mg/kg was used a reference medicament.
# Histology and morphometry. Respiratory and air pathways were studied on samples taken from the middle third (hilum of the lung) and apexes of the left lung. […] Material for the analysis of the lung histological structure in all animals was taken from the hilum and apex of the lung to study respiratory and air pathways.
# The time history of changes in lungs after administration of LPS are shown in FIGS. 1, 2 and 3, wherein the changes are expressed by semi-quantitative scores (intensity of interstitial edema expressed by scores) or by a percentage ratio of the injured part of the lung.
smiles,measurement,setting,value
"C[C@@H]1C[C@H]2[C@@H]3CCC4=CC(=O)C=C[C@]4(C)[C@@]3(F)[C@@H](O)C[C@]2(C)[C@@]1(O)C(=O)CO [Dexamethasone, dexamethasone, reference compound]","Without changes (number of rats, mucous membrane in the nasal passages, macroscopic)",[1],nine
same,Diapedesis of erythrocytes (lung sections),"[2]; 5 mg/kg, 24 hours after administration of LPS",elevated; also recorded: Increase
same,Peribronchial infiltration and interstitial edema (lung sections),"[2]; 5 mg/kg, 72 hours after administration of LPS",reduced; also recorded: Redaction
same,Peribronchial infiltration and interstitial edema (lung sections),"[2]; 27 mg/kg, 24 hours after administration of LPS",reduced
same,Peri- and intrabronchial infiltration and interstitial edema (lung sections),"[2]; 27 mg/kg, 72 hours after administration of LPS",reduced
